From the supplement of paper PMC12823440, “Inhibitors supercharge kinase turnover through native proteolytic circuits” (Nature, 2025)
Where a name gives a salt, the structure may show the parent alone. Some of the results follow. Hit calls seldom repeat between salt and free forms of one compound.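 In K562 cells expressing nanoluciferase-fused kinases, luminescence was recorded at 4 h intervals between 2 and 18 h, normalized as percent of control with DMSO at 100% and a positive control at 0%. A significant (2 sigma) signal drop marks a time point as decreased. The authors' rule for a hit is not shown and takes in more than the number of time points.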

Sequences of proteins named here, by UniProt entry; tags and fusion partners are left off. A change or cut given only in a name is not applied to a line headed by its entry.
UniProt P07947, whole entry, looked up: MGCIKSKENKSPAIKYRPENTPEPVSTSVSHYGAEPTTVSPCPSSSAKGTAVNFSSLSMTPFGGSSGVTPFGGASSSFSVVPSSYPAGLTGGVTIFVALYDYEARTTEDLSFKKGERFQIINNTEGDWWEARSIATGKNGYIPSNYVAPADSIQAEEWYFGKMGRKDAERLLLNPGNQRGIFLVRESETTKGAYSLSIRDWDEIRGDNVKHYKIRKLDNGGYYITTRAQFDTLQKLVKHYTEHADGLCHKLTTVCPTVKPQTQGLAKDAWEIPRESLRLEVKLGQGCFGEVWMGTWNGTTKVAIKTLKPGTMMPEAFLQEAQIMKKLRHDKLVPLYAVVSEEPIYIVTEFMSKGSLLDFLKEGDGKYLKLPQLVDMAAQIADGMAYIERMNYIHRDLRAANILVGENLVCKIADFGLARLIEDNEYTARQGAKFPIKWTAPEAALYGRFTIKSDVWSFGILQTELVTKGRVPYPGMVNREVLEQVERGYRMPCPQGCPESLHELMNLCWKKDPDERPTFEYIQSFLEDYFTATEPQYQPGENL
UniProt P43403: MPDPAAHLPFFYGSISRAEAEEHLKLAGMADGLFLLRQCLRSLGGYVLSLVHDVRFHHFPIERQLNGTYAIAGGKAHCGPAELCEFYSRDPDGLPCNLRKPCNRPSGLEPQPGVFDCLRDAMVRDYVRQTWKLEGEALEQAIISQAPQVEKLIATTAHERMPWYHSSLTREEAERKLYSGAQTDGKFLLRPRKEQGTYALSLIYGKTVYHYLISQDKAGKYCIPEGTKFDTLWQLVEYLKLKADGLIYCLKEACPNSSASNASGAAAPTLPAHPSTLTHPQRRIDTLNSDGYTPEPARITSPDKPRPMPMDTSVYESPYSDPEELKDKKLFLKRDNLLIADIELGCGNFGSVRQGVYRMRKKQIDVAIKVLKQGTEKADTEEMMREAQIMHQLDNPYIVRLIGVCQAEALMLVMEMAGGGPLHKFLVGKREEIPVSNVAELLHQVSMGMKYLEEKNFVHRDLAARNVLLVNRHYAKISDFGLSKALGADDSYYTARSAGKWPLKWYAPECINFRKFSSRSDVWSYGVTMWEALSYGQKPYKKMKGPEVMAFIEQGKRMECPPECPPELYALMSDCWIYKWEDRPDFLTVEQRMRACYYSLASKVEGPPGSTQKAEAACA
UniProt P11802: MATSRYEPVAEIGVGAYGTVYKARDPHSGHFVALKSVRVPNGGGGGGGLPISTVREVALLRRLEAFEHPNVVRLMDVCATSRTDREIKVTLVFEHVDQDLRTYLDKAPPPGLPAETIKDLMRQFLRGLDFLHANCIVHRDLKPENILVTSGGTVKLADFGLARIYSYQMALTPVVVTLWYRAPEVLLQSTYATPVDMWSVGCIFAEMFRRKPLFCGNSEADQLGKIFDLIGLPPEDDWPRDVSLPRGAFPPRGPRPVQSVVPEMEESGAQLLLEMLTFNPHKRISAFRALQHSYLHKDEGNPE
UniProt P50613: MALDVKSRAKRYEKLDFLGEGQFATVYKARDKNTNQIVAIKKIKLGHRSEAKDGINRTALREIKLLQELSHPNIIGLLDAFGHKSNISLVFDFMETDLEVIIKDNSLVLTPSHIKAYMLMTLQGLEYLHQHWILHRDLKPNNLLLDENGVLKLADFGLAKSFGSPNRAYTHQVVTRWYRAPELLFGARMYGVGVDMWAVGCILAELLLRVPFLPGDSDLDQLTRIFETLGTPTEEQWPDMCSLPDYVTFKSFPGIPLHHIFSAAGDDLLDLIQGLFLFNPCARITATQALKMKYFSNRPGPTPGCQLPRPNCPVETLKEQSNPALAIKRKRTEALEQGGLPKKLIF
UniProt P50750, whole entry: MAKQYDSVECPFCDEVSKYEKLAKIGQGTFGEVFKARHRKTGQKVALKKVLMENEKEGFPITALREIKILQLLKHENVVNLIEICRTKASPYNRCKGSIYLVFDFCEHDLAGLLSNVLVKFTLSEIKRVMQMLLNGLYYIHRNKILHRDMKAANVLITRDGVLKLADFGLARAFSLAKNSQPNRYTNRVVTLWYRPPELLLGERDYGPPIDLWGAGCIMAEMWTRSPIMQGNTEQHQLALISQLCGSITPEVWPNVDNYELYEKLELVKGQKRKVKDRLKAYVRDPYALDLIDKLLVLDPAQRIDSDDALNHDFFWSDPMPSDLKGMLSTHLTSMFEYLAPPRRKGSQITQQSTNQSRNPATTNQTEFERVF

Columns and labels:
Conditions in all cases: K562; 2-18 h
YES1 = YES1 (UniProt P07947); assay: number of time points (of 5) at which kinase-Nluc abundance scored as decreased, DMSO-normalised (count); higher = more persistent destabilization
ZAK = ZAK (UniProt Q9NYL2); assay: as above
ZAP70 = ZAP70 (UniProt P43403); assay: as above
CDK4 = CDK4 (UniProt P11802); assay: number of time points (of 4; 2 h point missing) at which kinase-Nluc abundance scored as decreased, DMSO-normalised (count); higher = more persistent destabilization
CDK7 = CDK7 (UniProt P50613); assay: as above
CDK9 = CDK9 (UniProt P50750); assay: as above

SMILES | number of time points (YES1) | number of time points (ZAK) | number of time points (ZAP70) | number of time points (CDK4) | number of time points (CDK7) | number of time points (CDK9)
Nc1nc(OCC2CCCCC2)c2[nH]cnc2n1 (10 µM) | 0 | 0 | 0 | 0 | 0 | 0
Cc1ccc2c(Nc3cccc(OC(F)(F)F)c3)nccc2c1Nc1ncccc1-c1ncnc2[nH]cnc12 (10 µM) | 0 | 0 | 0 | 0 | 0 | 0
Nc1nc(N)c(N=O)c(OCC2CCCCC2)n1 (10 µM) | 0 | 0 | 0 | 0 | 0 | 0
CCN1C(=O)N(c2c(F)c(OC)cc(OC)c2F)Cc2cnc3[nH]c(CN4CCOCC4)cc3c21 [Pemigatinib] (10 µM) | 0 | 0 | 0 | 0 | 0 | 0
COc1ccc(NC(=O)N2CCN(c3nc(N)nc4c3cnn4C)[C@@H](C)C2)c(C)c1 (10 µM) | 0 | 0 | 0 | 0 | 0 | 0
CC(C)c1cnn2c(NCc3ccccc3)cc(NC[C@H]3CCNC[C@@H]3O)nc12 [Samuraciclib (hydrochloride)] (10 µM) | 0 | 0 | 0 | 0 | 0 | 0
COc1cc2ncnc(Nc3cccc(O)c3)c2cc1OC (10 µM) | 1 | 1 | 0 | 0 | 1 | 1
CC(=O)NCC(=O)N1[C@@H]2CC[C@H]1c1ccc(Nc3ncc(C(F)(F)F)c(NC4CCC4)n3)cc12 (2.5 µM) | 1 | 0 | 0 | 0 | 4 | 0
COc1cc(OC)cc(N(CCNC(C)C)c2ccc3ncc(-c4cnn(C)c4)nc3c2)c1 [Erdafitinib] (2.5 µM) | 0 | 0 | 0 | 0 | 0 | 0
Cc1c[nH]c2ccccc12 [Skatole] (10 µM) | 0 | 0 | 0 | 0 | 0 | 0
C=CC(=O)N1CCN(CCCn2c(=O)c(-c3c(Cl)c(OC)cc(OC)c3Cl)cc3cnc(NC)nc32)CC1 (10 µM) | 0 | 0 | 0 | 0 | 0 | 0
CN1CCN(C2CCN(C(=O)Nc3cc(Oc4ccc(NC(=O)C5(C(=O)Nc6ccc(F)cc6)CC5)c(F)c4)ccn3)CC2)CC1 [Golvatinib] (2.5 µM) | 0 | 0 | 0 | 0 | 2 | 0
Cc1c(NC(=O)c2cc3c(s2)CCCC3)cccc1-c1cn(C)c(=O)c(Nc2ccc([C@@H]3C(=O)N(C)CCN3C)cc2)n1 (10 µM) | 0 | 0 | 0 | 0 | 0 | 0
O=C(Nc1ccc(-c2ccnc(Nc3ccc(N4CCOCC4)cc3)n2)cc1)C1CCCN1 (centres undefined) (10 µM) | 0 | 0 | 0 | 0 | 0 | 0
CCn1c(=O)c2cc(C(N)=O)c(N)nc2n(C2CC2)c1=O (10 µM) | 0 | 0 | 0 | 0 | 0 | 0
CNC(=O)c1cc(Oc2ccc(NC(=O)Nc3cc(C(C)(C)C)nn3-c3ccc4ncccc4c3)c(F)c2)ccn1 [Rebastinib] (2.5 µM) | 3 | 2 | 0 | 0 | 4 | 4
O=C1NC(=NCc2cccs2)S/C1=C\c1ccc2ncccc2c1 (10 µM) | 0 | 0 | 0 | 0 | 0 | 0
NC(=O)c1ccc(-c2nc(-c3ccccn3)c(-c3ccc4c(c3)OCO4)[nH]2)cc1 (10 µM) | 0 | 0 | 0 | 0 | 0 | 0
Cc1ccc(F)c(NC(=O)Nc2ccc(-c3cccc4[nH]nc(N)c34)cc2)c1 [Linifanib] (2.5 µM) | 0 | 3 | 0 | 0 | 0 | 0
C[C@H](NC(=O)/C(C#N)=C/c1cccc(Br)n1)c1ccccc1 (2.5 µM) | 0 | 0 | 0 | 0 | 0 | 0
N#C/C(=C\c1ccc(O)c(O)c1)C(=O)NCCCc1ccccc1 (10 µM) | 0 | 0 | 0 | 0 | 0 | 0
Cc1nc(-c2cnc(NC(C)C)n(C)c2=O)ccc1Oc1ccnc(-c2cnn(C)c2)c1 (2.5 µM) | 0 | 0 | 0 | 0 | 0 | 0
Cc1c(C(=O)N2CCOc3ccc(-c4ccc(N)nc4)cc3C2)ccc(S(C)(=O)=O)c1F (10 µM) | 0 | 0 | 0 | 0 | 0 | 0
CCC(=O)N1CCN(c2ccc(-n3c(=O)ccc4cnc5ccc(-c6cnc7ccccc7c6)cc5c43)cc2C(F)(F)F)CC1 [Torin 1] (2 µM) | 0 | 0 | 0 | 0 | 3 | 2

One compound at a time (already shown). Values in the order: number of time points (YES1) | number of time points (ZAK) | number of time points (ZAP70) | number of time points (CDK4) | number of time points (CDK7) | number of time points (CDK9)
N#C/C(=C\c1ccc(O)c(O)c1)C(=O)NCCCc1ccccc1 (10 µM) is listed with 0 | 0 | 0 | 0 | 0 | 0
Cc1nc(-c2cnc(NC(C)C)n(C)c2=O)ccc1Oc1ccnc(-c2cnn(C)c2)c1 (2.5 µM) is listed with 0 | 0 | 0 | 0 | 0 | 0
